The assay can be described thus: qHTS Assay to Find Inhibitors of Chronic Active B-Cell Receptor Signaling. Conditions: ABC-DLBCL IkBa-CBG/CBR reporter, luminescence ratio (green luciferase fused to IkBa over red control in TMD8 lymphoma cells), 4 h. The procedure, abridged: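 Compounds up to 46 uM were incubated four hours with TMD8 cells whose green CBG68 luciferase is fused to IkappaBalpha; red CBR luminescence normalised the signal, and concentration-effect curves were fitted to fusion, red and ratio data.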
In general terms: Quantitative high-throughput screening tests each substance at several concentrations.

Setting [1] is: measured here: CBR red luminescence, cell number.
Where [2] appears, read: measured here: IkBa-CBG green luminescence.

The list shows a part of the results. These are further read-outs of the screen, such as a control signal, another cell line or another target. No call is given for them. The list favours compounds with an active or inconclusive main result. Words in brackets tell the shape of the fitted curve; partial curves, single points and poor fits give uncertain potencies.

In the case of `O=C(COC(=O)CNC(=O)C1CCCCC1)Nc1ccc2ccccc2c1`, the AC50 under setting [1] is 0.326 µM [rising, full curve, poor fit].

For `Cc1ccnc(NS(=O)(=O)c2ccc(NC(=O)c3ccc([N+](=O)[O-])s3)cc2)n1`, under setting [1], the half-maximal activity concentration (AC50) was 20 µM [rising, single point]. The same measure, in the same setting: to `CC1CCN(c2nc3ccc(C(=O)NCCCN4CCCCC4)cc3s2)CC1` belongs 0.631 µM [falling, full curve, poor fit]; to `CC(C)Cn1cnc2c1c(=O)n(CC(=O)O)c(=O)n2Cc1ccccc1`, 3.16 µM [rising, full curve, poor fit]. Regarding `Cc1ccc(C(=O)Nn2c(O)c(C=C3N=c4ccccc4=N3)sc2=S)cc1`, the AC50 under setting [1] is 5.01 µM [falling, full curve, poor fit]. On the same count and under the same terms, to `Oc1c(Cl)cc(Cl)cc1C=Nc1cc(C(F)(F)F)ccc1N1CCc2ccccc2C1` belongs 35.5 µM [falling, single point]; to `CCc1cccc(NC(=O)CCNS(=O)(=O)c2ccc3[nH]c(=O)oc3c2)c1`, 2.51 µM [falling, partial curve, poor fit]; to `Cc1onc(-c2ccccc2)c1CNC(=O)C1COc2ccccc2O1` (stereo unspecified), 2.82 µM [rising, partial curve, poor fit]. Same read-out and setting: to `Cc1ccc(NC(=O)NCc2ccc3c(c2)OCO3)cc1C` belongs 3.16 µM [falling, partial curve, poor fit]; to `CCN(CC)C(=O)CNc1ccc(C(F)(F)F)cc1[N+](=O)[O-]`, 29.1 µM [rising, partial curve, poor fit]; to `Cc1c(OCC(=O)NCCN2CCOCC2)ccc2c3c(c(=O)oc12)CCC3`, 35.5 µM [rising, single point]. On the same count and under the same terms, to `O=C(NCc1cn2ccccc2n1)c1ccc(Br)o1` belongs 10.3 µM [falling, partial curve]; to `Cn1c(=O)[nH]c(=O)c2c1nc(Br)n2CC(O)c1ccccc1` (stereo unspecified), 12.6 µM [falling, partial curve].

Consider `CCOC(=O)c1c(CSc2ccccc2)oc2ccc(O)cc12`, for which the half-maximal activity concentration (AC50) under setting [1] was 6.51 µM [rising, single point]. Same read-out and setting: to `CCOc1ccc(CCNC(=O)c2cc(-c3ccccc3)c(N3CCOCC3)s2)cc1OCC` belongs 3.55 µM [falling, partial curve, poor fit]; to `COc1ccc(/C=C/c2nc(-c3ccccc3O)n[nH]2)cc1`, 3.26 µM [falling, partial curve]. `CCOc1ccc(-n2cnnn2)cc1S(=O)(=O)NCc1ccccc1`: the AC50 under setting [1] is 0.058 µM [rising, full curve, poor fit]. With `Cc1cccc(N(C)C(=O)c2cc3cc4ccc(C)cc4nc3o2)c1`, under setting [1], the AC50 is 2.91 µM [rising, single point]. The same measure, in the same setting: then `CCOC(=O)c1ccc(NC2Nc3cc(C)nn3S2)cc1` (stereo unspecified), with 17.8 µM [rising, partial curve, poor fit]; and `c1ccc(CCSc2nccn2-c2ccccc2)cc1`, with 12.6 µM [falling, single point]; and `CCCOC(=O)c1c(NC(=O)/C=C/c2cnn(C)c2C)sc(C(=O)OCC)c1C`, with 14.1 µM [falling, single point]. Still for that read-out and setting: then `O=C(Cc1cccs1)NCc1ccccc1F`, with 23.1 µM [rising, partial curve, poor fit]; and `Cc1ccc(C(=O)NC2CCCCNC2=O)cc1C` (stereo unspecified), with 35.5 µM [falling, single point]. On the same count and under the same terms, then `O=[N+]([O-])c1ncccc1OCc1ccc(Cl)c(Cl)c1`, with 10 µM [rising, partial curve]; and `COc1ccc(C)cc1NC(=O)c1cc2c(=O)n3ccccc3nc2n1C`, with 3.55 µM [rising, single point]. Turning to `COc1ccc(N=Cc2[nH]c3ccccc3c2O)cc1`, the AC50 under setting [1] is 17.8 µM [falling, partial curve, poor fit]. On the same count and under the same terms, to `COc1ccc(/C=N/Nc2cc(C)nc3ccc(OC)cc23)c(OC)c1` belongs 22.4 µM [falling, single point]; to `CSc1nc(C)c2cc(C)oc2n1`, 2.31 µM [falling, partial curve, poor fit]; to `CCCCC(=O)NC(c1ccco1)c1cc(Cl)c2cccnc2c1O` (stereo unspecified), 1.41 µM [falling, partial curve, poor fit]. On to `CO/N=C/c1ccc(Sc2ccccc2)c([N+](=O)[O-])c1`, for which the AC50 under setting [1] was 16.4 µM [rising, partial curve]. Take `Cc1cccc(-n2c(N)cc(=O)nc2SC(C)C(=O)NC2CCCCC2)c1` (stereo unspecified): under setting [1], the half-maximal activity concentration (AC50) is 0.355 µM [rising, partial curve, poor fit]. Still for that read-out and setting: then `O=C(CSCc1ccc(F)cc1)NCc1ccco1`, with 20.6 µM [rising, single point].

In the case of `CCN(CC)S(=O)(=O)c1cc([N+](=O)[O-])ccc1NNC(=O)Nc1ccc(Cl)c(Cl)c1`, the AC50 under setting [1] was 20.6 µM [falling, single point] and the concentration at half-maximal activity (AC50) under setting [2] is 20.6 µM [rising, partial curve, poor fit]. With `Cc1ccccc1C(=O)N/N=C/c1ccncc1`, the half-maximal activity concentration (AC50) under setting [1] was 11.2 µM [falling, partial curve]. On the same count and under the same terms, to `O=[N+]([O-])c1cc(S(=O)(=O)NCCN2CCOCC2)ccc1Sc1nnnn1-c1ccccc1` belongs 32.6 µM [falling, single point]; to `COc1ccc2[nH]c3c(=O)n(CCN4CCOCC4)cnc3c2c1`, 20 µM [rising, single point]; to `NS(=O)(=O)c1ccc(CCNC(=O)Nc2ccc(Cl)c(Cl)c2)cc1`, 16.4 µM [falling, single point]. Same read-out and setting: to `O=C(COC(=O)COc1ccccc1[N+](=O)[O-])NC1CCCC1` belongs 1.03 µM [rising, full curve, poor fit]; to `Cc1ccc(OCCSCc2nnc(NC(=O)Nc3cccc(Cl)c3)s2)cc1`, 10.3 µM [rising, partial curve]. The same measure, in the same setting: to `COc1ccc(NC(=O)c2ccccc2SC)cc1OC` belongs 10.3 µM [falling, partial curve, poor fit]. In the case of `O=C(NCc1ccco1)c1ccc(S(=O)(=O)N2CCCc3ccccc32)cc1`, the AC50 under setting [1] was 23.1 µM [falling, partial curve, poor fit]. Still for that read-out and setting: then `Cc1ccc(S(=O)(=O)N2CCC(C(=O)N[C@@H](Cc3ccccc3)C(=O)O)CC2)cc1`, with 6.51 µM [rising, single point]; and `COc1ccc(-c2n(CC(=O)OC3CC(C)CCC3C(C)C)c3ccccc3[n+]2C)cc1` (stereo unspecified), with 11.2 µM [rising, partial curve, poor fit]; and `O=C(CCS(=O)(=O)c1ccccc1)Nc1ccccc1F`, with 35.5 µM [falling, single point]. Same read-out and setting: to `COc1ccc(-c2csc(NC(=S)NC(=O)/C=C/c3ccco3)n2)cc1OC` belongs 29.1 µM [rising, single point]; to `CCCC(=O)Nc1ccc2c(c1)nc1n2CCN(CCOC)C1`, 31.6 µM [rising, partial curve, poor fit].

`Clc1cccc(NC2=NCCC2)c1`: under setting [1], the AC50 was 29.1 µM [rising, single point]. The same measure, in the same setting: to `Cc1csc(NC(=O)CSc2nnc(Cc3cccn3C)n2-c2ccc(F)cc2)n1` belongs 18.4 µM [falling, partial curve]; to `Cn1c(Cn2c(=O)sc3ccccc32)nnc1SCC(=O)NC1CCCC1`, 32.6 µM [rising, single point]. On to `COc1cc(CN2CCc3ccc(NC(=O)CCc4ccccc4OC)cc3C2)ccc1O`, for which the AC50 under setting [1] is 22.4 µM [falling, single point]. Consider `COc1ccc(CN(CC(=O)NCc2ccccc2)C(=O)CCC(=O)Nc2cc(C)ccn2)cc1`, for which the AC50 under setting [1] is 1.26 µM [rising, full curve].

On to `O=C(NNS(=O)(=O)c1ccccc1)c1ccc(O)cc1`, for which the AC50 under setting [1] is 11.6 µM [falling, partial curve]. The same measure, in the same setting: then `COc1ccc(NC(=O)c2ccccc2NC(=O)c2ccccc2C(=O)O)c(OC)c1`, with 22.4 µM [falling, single point]; and `Cc1ncc(CO)c2c1Oc1nc(-c3ccccc3)nc(SCC(=O)N3CCCCC3)c1C2`, with 0.891 µM [rising, full curve, poor fit]; and `CCOC(=O)C1CCN(C(=O)COC(=O)/C=C/c2cccc(OC)c2OC)CC1`, with 20.6 µM [rising, partial curve, poor fit]. Same read-out and setting: then `COc1ccc(Cl)cc1Nc1nc(N)c2ccccc2n1`, with 0.112 µM [rising, full curve, poor fit]; and `O=[N+]([O-])c1cccnc1NCCNc1ncc(C(F)(F)F)cc1Cl`, with 5.01 µM [rising, partial curve]; and `O=C(CCc1ccccc1)Nc1ccc(NS(=O)(=O)c2ccccc2)cc1`, with 3.98 µM [rising, full curve, poor fit]. As for `CC(=O)Cc1nsc(NC(=O)c2cc(-c3ccc(Cl)c(Cl)c3)oc2C)n1`, under setting [1], the half-maximal activity concentration (AC50) is 1.41 µM [rising, full curve, poor fit]. On to `CCN(c1cccc(C)c1)S(=O)(=O)c1ccc(-c2cc(C)no2)s1`, for which the half-maximal activity concentration (AC50) under setting [1] was 12.6 µM [rising, partial curve, poor fit] and the AC50 under setting [2] was 12.6 µM [falling, partial curve]. For `O=C(COc1ccc([N+](=O)[O-])cc1)Nc1ccc2c(c1)nc1n2CCOC1`, under setting [1], the half-maximal activity concentration (AC50) was 3.16 µM [rising, partial curve, poor fit].

`Cc1cccc(NS(=O)(=O)c2cnc(Cl)c(Br)c2)n1`: the AC50 under setting [2] is 23.1 µM [rising, single point]. As for `Cc1cc(C)cc(-n2c(C)cc(/C=N/NC(=O)c3cccc([N+](=O)[O-])c3C)c2C)c1`, the AC50 under setting [1] was 32.6 µM [falling, single point]. Still for that read-out and setting: then `O=C(Nc1ccnn1C1CCN(Cc2ccc(O)c(Cl)c2)CC1)C1CCCC1`, with 12.6 µM [rising, partial curve, poor fit].

Broadly, the AC50 is the concentration at which the activity in the assay is half-maximal.

(Values after PubChem BioAssay AID493014 (National Center for Advancing Translational Sciences (NCATS), 2011).)
